# Laboratory results as given in PMC7819943, “Rice protein-binding microarrays: a tool to detect cis-acting elements near promoter regions in rice”.
# The list shows a part of the results.
# Target: T1, OsSMF1 (Oryza sativa, UniProt Q6ZLB0 1-436)
# T1 sequence: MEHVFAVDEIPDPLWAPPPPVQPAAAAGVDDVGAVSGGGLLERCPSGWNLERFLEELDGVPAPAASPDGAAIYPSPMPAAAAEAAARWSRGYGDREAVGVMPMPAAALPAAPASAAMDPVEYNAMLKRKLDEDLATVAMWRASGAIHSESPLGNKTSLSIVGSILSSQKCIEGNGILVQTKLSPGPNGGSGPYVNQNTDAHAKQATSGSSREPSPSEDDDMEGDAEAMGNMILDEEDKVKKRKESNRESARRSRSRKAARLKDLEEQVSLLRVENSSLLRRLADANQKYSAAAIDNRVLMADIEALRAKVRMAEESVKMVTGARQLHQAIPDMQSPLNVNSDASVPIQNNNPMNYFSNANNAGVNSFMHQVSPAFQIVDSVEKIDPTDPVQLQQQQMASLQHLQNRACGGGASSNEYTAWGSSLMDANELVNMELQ
# Assay: protein-binding microarray (RPBM); PBS, 2% BSA, 51.3 ng/ul salmon testes DNA, 50 uM zinc acetate, 200 nM TF, 25 C, 1 h; high values mean tight binding
# Settings: protein: recombinant; tags: N-terminal polyhistidine and DsRed monomer fusion (pET32a); chain copies: 2; label: CyDye5-dUTP incorporated in the synthesized complementary strand; 3' TTTTT single-stranded linker to array surface; dsDNA, one strand shown
# How it was run: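 The binding signal is fluorescence intensity per array feature (arbitrary units). Readings came from an Axon 4000B scanner after a washed, 2% BSA-blocked, double-stranded custom Agilent array had been incubated for 1 h at 25 °C with 200 nM protein and 50 µM zinc acetate. The protein was a Ni–NTA-purified transcription factor fused N-terminally to polyhistidine and DsRed, expressed in E. coli BL21-CodonPlus.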
row,Sequence,binding signal
1,GCCCGCACCACCGCACGTGCACCCCTCAAACTCGCCATCGCGGAGTCACCTAGTGCAG,4230 fluorescence intensity (a.u.)
2,CCAAGCTAATGCCACGTAAGCGCCACGTAGGATAAAGACTCGGAGTCACCTAGTGCAG,27900 fluorescence intensity (a.u.)
3,CGACTCACCTGCCGAGCCACGCGTCGCGCACGCTGCGGAGCGGAGTCACCTAGTGCAG,3170 fluorescence intensity (a.u.)
4,AAACATAGAAGATGGATGGTGATGTCAATGATGTGCCTCACGGAGTCACCTAGTGCAG,3830 fluorescence intensity (a.u.)
5,CGAACCCGACTCCCTCCACAATTCCGCTAGTCCGAGTCAACGGAGTCACCTAGTGCAG,4820 fluorescence intensity (a.u.)
6,TGACATGTAGCACTCACATGAGTCAATGACATATGGGTCACGGAGTCACCTAGTGCAG,6640 fluorescence intensity (a.u.)
7,CTGGTTGCTTGCGTGCTGGTTTGGCTTTGGATTGAACAATCGGAGTCACCTAGTGCAG,3170 fluorescence intensity (a.u.)
8,CTCGCGCGCGTGGTGTCACGTCTTGACCCGCCGCTCCGACCGGAGTCACCTAGTGCAG,4096 fluorescence intensity (a.u.)
9,CATCTCCTACCTCCATCGATCCATCTATATAACCCATGGTCGGAGTCACCTAGTGCAG,3380 fluorescence intensity (a.u.)
10,TATATACATTCCGAGCTAGGTCAGCATATTGCAACAGCTACGGAGTCACCTAGTGCAG,3710 fluorescence intensity (a.u.)
11,CCACTGCCCCTCCATGCGCGCGCGCGTGCGTTGCTCAGCTCGGAGTCACCTAGTGCAG,3480 fluorescence intensity (a.u.)
12,CGAGAAAATGGACAGTATGCCACCCTATAGATTGGGTTCGCGGAGTCACCTAGTGCAG,3180 fluorescence intensity (a.u.)
13,ATTGTTGGGTATCTATTGGGTATGCTCTAATAGTCATGTTCGGAGTCACCTAGTGCAG,3610 fluorescence intensity (a.u.)
14,GAGCTAGCAGACAACTATCAAGAGTCACATGAACTTCAGACGGAGTCACCTAGTGCAG,3140 fluorescence intensity (a.u.)
15,CTGTGGTGTACGAGCGCAATGTGTAATGTCGTCGTTGGGGCGGAGTCACCTAGTGCAG,3350 fluorescence intensity (a.u.)
16,TCTAGATGAATCTGCCAACTTGGTATGTGCCATTATTATGCGGAGTCACCTAGTGCAG,6570 fluorescence intensity (a.u.)
17,GAAAACCAAGTCAACGCTGCCACGTCAGTGAAACCGTCATCGGAGTCACCTAGTGCAG,22900 fluorescence intensity (a.u.)
18,GTTGACCCGCAGTTCCCCTTTGTTTTCCACGTGTTTCTTCCGGAGTCACCTAGTGCAG,7790 fluorescence intensity (a.u.)
19,CTACTAGAGCTGTAGCTGACGTGGGTCCACCGGGCAGCGACGGAGTCACCTAGTGCAG,19400 fluorescence intensity (a.u.)
20,TAAAGTGGTGATCTTTAGTCCCGGTTTGTGACATCAACCGCGGAGTCACCTAGTGCAG,3530 fluorescence intensity (a.u.)
21,TCCAGGCGGCGAGACGTGACCAAATCACGTACAAGTCGTCCGGAGTCACCTAGTGCAG,3160 fluorescence intensity (a.u.)

# Reformatted tab-delimited: part of the list above
row	Sequence	binding signal
14	GAGCTAGCAGACAACTATCAAGAGTCACATGAACTTCAGACGGAGTCACCTAGTGCAG	3140 fluorescence intensity (a.u.)
15	CTGTGGTGTACGAGCGCAATGTGTAATGTCGTCGTTGGGGCGGAGTCACCTAGTGCAG	3350 fluorescence intensity (a.u.)
16	TCTAGATGAATCTGCCAACTTGGTATGTGCCATTATTATGCGGAGTCACCTAGTGCAG	6570 fluorescence intensity (a.u.)

# Continued.

row,Sequence,binding signal
1,TTCTATGGCCGTTGATGTAGGGGTGCTTGTGTGGATGATGCGGAGTCACCTAGTGCAG,3400 fluorescence intensity (a.u.)
2,CGTTTCAATTCGGATGATAGGGGCATTGTTTCCTCGTGGACGGAGTCACCTAGTGCAG,3680 fluorescence intensity (a.u.)
3,GCCGGATATGGGAGGATATATAAGAGTCTGATGATAAAATCGGAGTCACCTAGTGCAG,3220 fluorescence intensity (a.u.)
4,GCGTGCGTCAGACCGCCTGTCGCCACCTAACCCACGATCTCGGAGTCACCTAGTGCAG,3820 fluorescence intensity (a.u.)
5,TTTAGTTATTACTACCACCACAGCACTACTAGAAATTAGGCGGAGTCACCTAGTGCAG,8770 fluorescence intensity (a.u.)
6,TATCGGAAATGGGACCGTCGGAACGGAATATATCGATATTCGGAGTCACCTAGTGCAG,25700 fluorescence intensity (a.u.)
7,TACTTTTACGCTCCGTGGGCCAGCGCGTCACGTTGGAGAGCGGAGTCACCTAGTGCAG,4360 fluorescence intensity (a.u.)
8,GTTCTTGTTGATGCCCAATGATGATCCTTTAATTGTCATGCGGAGTCACCTAGTGCAG,3650 fluorescence intensity (a.u.)
9,TACCGTCGGTTGACTATGTGTTGACCGTTAACTCTCAAGTCGGAGTCACCTAGTGCAG,3870 fluorescence intensity (a.u.)
10,AAACCTCCAATCCCCAATAGCCCACGTACGGTTGCAGACACGGAGTCACCTAGTGCAG,3420 fluorescence intensity (a.u.)
11,AGGCCACGCCAGCCCAGCTTGCCCGCGCCCCTCCTTCAGTCGGAGTCACCTAGTGCAG,4880 fluorescence intensity (a.u.)
12,CACTTCGTCTCCTCCGCTCCTTGCGCCGCCGCCAAGACGACGGAGTCACCTAGTGCAG,24100 fluorescence intensity (a.u.)
13,TCTTGCATTGTTGCATCATCAGCACCCAACTTTTGCAGATCGGAGTCACCTAGTGCAG,5810 fluorescence intensity (a.u.)
14,GGAGCATATCGTAGGTGTGCATGTCAGCAATGAAGGATTTCGGAGTCACCTAGTGCAG,4020 fluorescence intensity (a.u.)
15,CAGCATCTATGTCAGTCACCAGCGACCTCATTACCAGAAGCGGAGTCACCTAGTGCAG,3380 fluorescence intensity (a.u.)
16,CGTAGACGAGGTGGAGGTGCGGCCACGATCGACGGGAGCACGGAGTCACCTAGTGCAG,26400 fluorescence intensity (a.u.)
17,AATACGTTTTCCTACCGTGAAGGCGTATGCATATTTTACCCGGAGTCACCTAGTGCAG,4000 fluorescence intensity (a.u.)
18,CTTCAGCCCAGAGTACTGGAGTTTGGCACACCGGAGTCAGCGGAGTCACCTAGTGCAG,4030 fluorescence intensity (a.u.)
19,TATGGATATGATCCTTTGTTATCCACGTGCACGCAATATCCGGAGTCACCTAGTGCAG,4230 fluorescence intensity (a.u.)
20,TTCAGGATGAATGGTACGTAACATGATAGGACACTATTCACGGAGTCACCTAGTGCAG,48700 fluorescence intensity (a.u.)
21,GAGACTGCCCCGTCTGCGCCAACACGTCCAGAACGTTGCACGGAGTCACCTAGTGCAG,4040 fluorescence intensity (a.u.)
